Experimental findings from publication PMC6757106, “Prokaryotic soluble overexpression and purification of oncostatin M using a fusion approach and genetically engineered E. coli strains” (Scientific Reports, 2019) are described below.

These are yes or no findings as the source states them, for the method shown. Some entries that bind do so weakly or less than the wild type. Tags and fused reporters may be left off the sequences shown.

This experiment deals with Human Oncostatin M (OSM), tag-free, purified from the His6-OSM fusion expressed in Origami 2 (human) (UniProt P13725). In words: non-reducing SDS-PAGE; final purified tag-free OSM run on 10% tricine SDS-PAGE under reducing and non-reducing conditions, Coomassie stained; both purified.

B1: Human Oncostatin M (OSM), tag-free, purified from the His6-OSM fusion expressed in Origami 2 (ligand, UniProt P13725 26-221, looked up)
chain: AAIGSCSKEYRVLLGQLQKQTDLMQDTSRLLDPYIRIQGLDVPKLREHCRERPGAFPSEETLRGLGRRGFLQTLNATLGCVLHRLADLEQRLPKAQDLERSGLNIEDLEKLQMARPNILGLRNNIYCMAQLLDNSDTAEPTKAGRGASQPPTPTPASDAFQRKLEGCRFLHGYHRFMHSVGRVFSKWGESPNRSRR
notes: Oncostatin M, human; Tag removed with TEV protease at ENLYFQ/G; a glycine probably stays at the N-terminus (surmised from the cysteine numbering); Printed size 22.05 kDa; also called His6 fusion-derived OSM; OSM purified from His-OSM; source: E. coli Origami 2(DE3), 18 °C, purified (IMAC with 2 M urea, TEV protease cleavage, second IMAC); not shown: His6, N-terminal, cleaved
On to B1, for which the binding entry was “binds weakly”.
